According to article doi:10.1101/2021.04.23.441173:
No constants are given. Whether binding was seen depends on the method and setting. In cells and extracts the contact can be indirect. Some entries that bind do so weakly or less than the wild type.

By UniProt entry, the sequences of proteins in these tests, tags left out.
UniProt Q9VF03: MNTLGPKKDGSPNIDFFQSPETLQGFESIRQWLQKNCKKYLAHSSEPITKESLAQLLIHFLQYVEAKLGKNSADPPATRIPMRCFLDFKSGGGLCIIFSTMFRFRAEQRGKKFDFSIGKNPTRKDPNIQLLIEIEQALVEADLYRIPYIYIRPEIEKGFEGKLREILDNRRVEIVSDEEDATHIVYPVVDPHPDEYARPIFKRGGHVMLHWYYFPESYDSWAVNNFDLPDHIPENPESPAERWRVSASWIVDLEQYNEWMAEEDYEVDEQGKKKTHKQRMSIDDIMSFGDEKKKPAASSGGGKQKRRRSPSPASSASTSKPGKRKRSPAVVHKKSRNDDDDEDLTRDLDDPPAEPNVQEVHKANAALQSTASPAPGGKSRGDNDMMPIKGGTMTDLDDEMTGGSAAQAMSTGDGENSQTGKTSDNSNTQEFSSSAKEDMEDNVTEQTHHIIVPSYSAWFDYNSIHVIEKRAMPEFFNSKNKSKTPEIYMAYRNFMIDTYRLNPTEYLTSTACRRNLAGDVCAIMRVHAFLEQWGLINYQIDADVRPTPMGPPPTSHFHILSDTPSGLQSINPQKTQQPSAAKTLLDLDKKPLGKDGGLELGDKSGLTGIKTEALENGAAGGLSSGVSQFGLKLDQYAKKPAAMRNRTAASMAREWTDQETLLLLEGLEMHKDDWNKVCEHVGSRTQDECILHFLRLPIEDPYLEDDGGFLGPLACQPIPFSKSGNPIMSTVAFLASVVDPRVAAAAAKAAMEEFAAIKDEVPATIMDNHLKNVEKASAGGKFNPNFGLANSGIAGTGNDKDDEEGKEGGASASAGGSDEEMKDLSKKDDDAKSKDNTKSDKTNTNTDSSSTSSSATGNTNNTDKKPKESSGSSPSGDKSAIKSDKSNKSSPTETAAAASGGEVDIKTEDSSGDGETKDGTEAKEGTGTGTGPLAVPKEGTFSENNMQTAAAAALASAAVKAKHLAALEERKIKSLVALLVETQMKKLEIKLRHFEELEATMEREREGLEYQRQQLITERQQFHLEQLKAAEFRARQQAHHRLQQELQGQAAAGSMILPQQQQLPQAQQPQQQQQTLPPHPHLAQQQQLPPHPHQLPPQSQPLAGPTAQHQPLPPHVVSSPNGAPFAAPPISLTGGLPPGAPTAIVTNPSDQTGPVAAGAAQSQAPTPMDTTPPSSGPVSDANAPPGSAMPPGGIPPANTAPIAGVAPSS
UniProt P25439: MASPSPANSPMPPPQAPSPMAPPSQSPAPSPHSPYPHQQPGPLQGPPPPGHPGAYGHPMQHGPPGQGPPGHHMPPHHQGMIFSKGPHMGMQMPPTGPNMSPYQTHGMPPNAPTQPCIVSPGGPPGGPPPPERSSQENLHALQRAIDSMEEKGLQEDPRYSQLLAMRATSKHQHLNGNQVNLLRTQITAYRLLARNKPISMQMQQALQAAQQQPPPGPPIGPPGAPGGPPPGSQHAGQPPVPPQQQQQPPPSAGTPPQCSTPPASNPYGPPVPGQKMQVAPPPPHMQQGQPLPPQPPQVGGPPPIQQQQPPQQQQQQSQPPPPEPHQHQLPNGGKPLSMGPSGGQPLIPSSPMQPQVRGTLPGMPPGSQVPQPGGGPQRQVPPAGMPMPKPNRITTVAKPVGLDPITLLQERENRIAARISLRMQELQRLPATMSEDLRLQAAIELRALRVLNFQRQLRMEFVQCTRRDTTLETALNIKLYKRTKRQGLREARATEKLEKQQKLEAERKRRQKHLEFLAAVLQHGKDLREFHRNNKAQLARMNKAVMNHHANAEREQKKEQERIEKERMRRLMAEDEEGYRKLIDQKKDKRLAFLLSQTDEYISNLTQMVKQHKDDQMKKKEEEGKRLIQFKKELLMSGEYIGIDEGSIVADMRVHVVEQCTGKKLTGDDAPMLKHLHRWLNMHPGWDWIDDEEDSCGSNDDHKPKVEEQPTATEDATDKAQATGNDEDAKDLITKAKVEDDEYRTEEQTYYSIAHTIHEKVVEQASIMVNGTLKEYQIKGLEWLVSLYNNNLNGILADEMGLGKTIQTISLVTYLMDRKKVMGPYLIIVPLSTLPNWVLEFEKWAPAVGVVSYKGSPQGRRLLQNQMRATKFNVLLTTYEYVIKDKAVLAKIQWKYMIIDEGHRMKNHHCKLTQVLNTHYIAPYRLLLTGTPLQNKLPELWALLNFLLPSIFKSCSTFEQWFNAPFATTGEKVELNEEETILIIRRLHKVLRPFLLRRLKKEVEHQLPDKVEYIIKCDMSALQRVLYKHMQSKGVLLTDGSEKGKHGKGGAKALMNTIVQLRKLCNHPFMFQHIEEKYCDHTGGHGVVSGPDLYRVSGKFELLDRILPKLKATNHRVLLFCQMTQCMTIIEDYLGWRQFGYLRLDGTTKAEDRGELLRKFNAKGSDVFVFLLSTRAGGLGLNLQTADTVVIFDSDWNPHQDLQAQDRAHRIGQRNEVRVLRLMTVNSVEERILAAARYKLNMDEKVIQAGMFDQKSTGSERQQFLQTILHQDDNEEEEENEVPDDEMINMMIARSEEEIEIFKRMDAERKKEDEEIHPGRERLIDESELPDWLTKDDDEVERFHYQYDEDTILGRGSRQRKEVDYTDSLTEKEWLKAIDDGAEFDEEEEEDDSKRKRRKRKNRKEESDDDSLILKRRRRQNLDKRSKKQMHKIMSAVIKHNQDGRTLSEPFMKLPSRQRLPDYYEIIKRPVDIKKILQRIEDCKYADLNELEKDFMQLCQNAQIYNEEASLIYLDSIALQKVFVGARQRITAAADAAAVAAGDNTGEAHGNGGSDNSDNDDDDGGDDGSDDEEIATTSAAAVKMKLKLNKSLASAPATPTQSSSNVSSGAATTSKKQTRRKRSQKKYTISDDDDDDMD
UniProt Q24090: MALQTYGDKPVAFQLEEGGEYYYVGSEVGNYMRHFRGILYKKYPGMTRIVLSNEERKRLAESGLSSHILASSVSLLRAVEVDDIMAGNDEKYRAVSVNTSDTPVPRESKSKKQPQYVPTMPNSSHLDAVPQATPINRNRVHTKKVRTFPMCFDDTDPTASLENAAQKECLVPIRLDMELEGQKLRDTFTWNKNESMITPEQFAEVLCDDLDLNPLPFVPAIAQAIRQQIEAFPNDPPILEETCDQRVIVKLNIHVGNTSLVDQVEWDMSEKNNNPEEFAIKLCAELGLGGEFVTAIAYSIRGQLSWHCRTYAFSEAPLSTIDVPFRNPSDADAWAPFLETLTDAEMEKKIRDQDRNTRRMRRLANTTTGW

Target: MOR (SMARCC1/2), endogenous (Drosophila (endogenous in larval salivary glands)) (UniProt Q9VF03)
Experiment: co-IP

| Substance | binding |
| --- | --- |
| GFP-BRM expressed in 3rd instar larval salivary glands of transgenic Drosophila (from UniProt P25439 1-1638) | binds |
| GFP-SNR1 expressed in larval salivary glands of transgenic Drosophila (from UniProt Q24090 1-370) | binds |
